Measurements reported in PubChem BioAssay AID686943 (Drosophila RNAi Screening Center, 2013).
The screen tested about 23,000 reagents; this is a random part of those with a known target gene and a result. 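Extra replicates exist only for a retested subset of genes; insulin dose and duration not given; both raised and lowered dpERK matter.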 Names joined by + are all predicted targets of the reagent. Not all columns of the deposit are shown. Not given: the amount of reagent, the time to read-out.

Screen: 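Search across the genome for regulators of signalling from receptor tyrosine kinase to ERK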 (primary screen)
Cells: Drosophila S2R+ haemocyte-like cells expressing YFP-tagged ERK (Rolled)
Reagent: long dsRNA against Drosophila genes
Conditions: insulin stimulation versus unstimulated cells; dose and duration not given
Detection: 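Per-plate z-scores of phospho-ERK immunostaining normalised to YFP-tagged ERK, measured with and without insulin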
Direction: replicate 1, z-score of dpERK with insulin: higher = more active ERK per ERK-YFP after insulin

pdm3 (pou domain motif 3) [DRSC06076] | replicate 1, z-score of dpERK with insulin: 0.07
pdm3 (pou domain motif 3) [DRSC06490] | replicate 1, z-score of dpERK with insulin: 0.61
pdm3 (pou domain motif 3) [DRSC22326] | replicate 1, z-score of dpERK with insulin: -0.43
Taf2 (TBP-associated factor 2) [DRSC11298] | replicate 1, z-score of dpERK with insulin: 1.74
et (eye transformer) [DRSC19582] | replicate 1, z-score of dpERK with insulin: 0.07
CG14777 [DRSC18563] | replicate 1, z-score of dpERK with insulin: 1.46
CG32834 [DRSC21929] | replicate 1, z-score of dpERK with insulin: 0.36
MED26 (Mediator complex subunit 26) [DRSC17126] | replicate 1, z-score of dpERK with insulin: -1.92
MED26 (Mediator complex subunit 26) [DRSC17147] | replicate 1, z-score of dpERK with insulin: -2.58
MED26 (Mediator complex subunit 26) [DRSC17148] | replicate 1, z-score of dpERK with insulin: -0.56
Mayo [DRSC14300] | replicate 1, z-score of dpERK with insulin: -0.06
CG9981 [DRSC20225] | replicate 1, z-score of dpERK with insulin: 0.19
CG43658 [DRSC19455] | replicate 1, z-score of dpERK with insulin: 0.51
CG43658 [DRSC20111] | replicate 1, z-score of dpERK with insulin: 0.6
CG14711 + Zaf1 [DRSC14934] | replicate 1, z-score of dpERK with insulin: 1.88
Cam (Calmodulin) [DRSC07353] | replicate 1, z-score of dpERK with insulin: 1.15
Cam (Calmodulin) [DRSC07354] | replicate 1, z-score of dpERK with insulin: 0.56
CG14442 [DRSC17935] | replicate 1, z-score of dpERK with insulin: -1.81
VAChT + ChAT [DRSC13312] | replicate 1, z-score of dpERK with insulin: 0.74
Arf4 (ADP ribosylation factor 4) [DRSC17195] | replicate 1, z-score of dpERK with insulin: -0.36
CG4953 [DRSC02792] | replicate 1, z-score of dpERK with insulin: -0.56
Lasp [DRSC10379] | replicate 1, z-score of dpERK with insulin: -0.02
CG14961 [DRSC08420] | replicate 1, z-score of dpERK with insulin: -0.65
CG32100 [DRSC09725] | replicate 1, z-score of dpERK with insulin: -0.27
CG32100 [DRSC10331] | replicate 1, z-score of dpERK with insulin: 1.05
Rif1 (Rap1 interacting factor 1) [DRSC05593] | replicate 1, z-score of dpERK with insulin: -0.37
Prip [DRSC07044] | replicate 1, z-score of dpERK with insulin: 0.3
OdsH (Ods-site homeobox) [DRSC20263] | replicate 1, z-score of dpERK with insulin: 1.43
grau (grauzone) [DRSC04691] | replicate 1, z-score of dpERK with insulin: -0.81
CR11023 (pseudo) [DRSC00302] | replicate 1, z-score of dpERK with insulin: 0.13
CG8138 [DRSC16386] | replicate 1, z-score of dpERK with insulin: 0.73
